In the test the target is T1, 3XFLAG-OFD1 (human) (UniProt O75665).
T1 sequence: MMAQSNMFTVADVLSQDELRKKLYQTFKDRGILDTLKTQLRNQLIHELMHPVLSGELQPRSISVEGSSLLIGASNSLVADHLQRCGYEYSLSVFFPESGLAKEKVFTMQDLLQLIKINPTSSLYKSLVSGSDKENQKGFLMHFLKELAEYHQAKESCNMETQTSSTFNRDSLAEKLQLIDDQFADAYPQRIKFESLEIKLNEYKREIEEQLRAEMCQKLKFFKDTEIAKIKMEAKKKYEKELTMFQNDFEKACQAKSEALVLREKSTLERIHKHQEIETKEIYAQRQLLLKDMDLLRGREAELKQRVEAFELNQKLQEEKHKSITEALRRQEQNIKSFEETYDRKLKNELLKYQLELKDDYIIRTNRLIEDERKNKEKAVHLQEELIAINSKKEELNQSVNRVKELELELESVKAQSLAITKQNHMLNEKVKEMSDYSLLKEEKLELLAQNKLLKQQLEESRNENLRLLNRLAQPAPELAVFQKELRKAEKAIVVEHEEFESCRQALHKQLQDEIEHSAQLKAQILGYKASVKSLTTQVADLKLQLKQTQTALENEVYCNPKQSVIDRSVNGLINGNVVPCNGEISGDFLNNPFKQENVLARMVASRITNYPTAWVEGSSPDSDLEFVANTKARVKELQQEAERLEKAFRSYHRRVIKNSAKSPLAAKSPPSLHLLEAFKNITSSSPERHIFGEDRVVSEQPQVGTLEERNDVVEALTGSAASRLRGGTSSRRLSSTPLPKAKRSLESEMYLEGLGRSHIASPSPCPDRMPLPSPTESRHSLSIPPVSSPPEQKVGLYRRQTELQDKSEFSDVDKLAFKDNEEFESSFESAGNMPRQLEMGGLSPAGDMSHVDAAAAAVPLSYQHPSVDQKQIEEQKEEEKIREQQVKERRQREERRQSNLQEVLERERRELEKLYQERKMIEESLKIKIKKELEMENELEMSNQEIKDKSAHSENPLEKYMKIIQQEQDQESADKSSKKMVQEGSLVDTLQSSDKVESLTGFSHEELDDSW
Kind of test: affinity purification with mass spectrometry; lysates of HEK293 cells expressing 3XFLAG-OFD1 (empty vector as control), M2 anti-FLAG agarose beads overnight at 4 °C, washing buffer with 300 mM NaCl, elution with 3XFLAG peptide, SDS-PAGE, nanoLC-MS/MS.

Protein sequences, listed by entry. Tags and fused reporters are not part of them.
UniProt O75821: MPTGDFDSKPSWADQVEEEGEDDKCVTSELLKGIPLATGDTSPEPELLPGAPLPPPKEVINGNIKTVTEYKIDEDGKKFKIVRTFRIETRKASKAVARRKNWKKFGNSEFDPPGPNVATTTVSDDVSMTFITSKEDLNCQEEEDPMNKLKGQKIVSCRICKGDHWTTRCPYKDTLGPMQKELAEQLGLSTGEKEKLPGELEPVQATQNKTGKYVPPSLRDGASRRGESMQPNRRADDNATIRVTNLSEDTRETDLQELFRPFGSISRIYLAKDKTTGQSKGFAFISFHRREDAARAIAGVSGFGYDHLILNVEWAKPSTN

Results are given in words; binding and its absence hold for the method and conditions named. Binding seen in cells or lysates may run through a third protein. Here binding means that the protein was enriched with, or labelled near, the bait; the list need not be complete. Where a sequence is shown, tags or fusion partners need not be part of it.

As for eIF3G (from UniProt O75821 1-320), the binding result is listed as “binds”.

For the origin of these results see publication PMC5430665.
